Primary screen of a compound library

Data taken from ChEMBL document CHEMBL3988442, “University of Dundee, Small-Polar-MMV Screening Library” (2021).

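Assay of Toxoplasma gondii numbers, read through their beta-galactosidase reporter with a colour substrate. Tested at 50 µM. The record gives no direction; the compounds picked for IC50 retests had high values, so higher reads as fewer parasites. Size under these conditions: about 18,000 compounds, about 170 of them at 50% or above in at least one test.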

Values are the deposited “Percent Effect”, in %. How 0% and 100% were set is not recorded. Most values in the screen are low, and negative values occur. This is an unselected part of the compounds tested.

With CNC(=O)C1CCN(C(=O)Nc2ccc(C)c(Cl)c2)C1 (stereo not drawn) the screen gave 4.385%. N#Cc1ccc(-c2nnc(CN3CCC(O)C3)o2)cc1 (stereo not drawn) read -14.09%. CC(C)n1cnnc1CCNC(=O)CCC(F)(F)F read 0.1007%. Result for Cc1ccc(CNS(C)(=O)=O)cc1F was 5.668%. COCCSCC(=O)Nc1cnn(C)c1 gave -1.318%. For CCS(=O)(=O)N[C@@H]1CCOC[C@H]1OCCN(C)C the result was -6.988%. With CN1CCN(CC2CCNCC2)CC1 the screen gave 2.492%. For Clc1cnn(C2CCNC2)c1 (stereo not drawn) the result was -17.93%.

CSc1cncc(NCCOc2cccnc2)n1 gave -6.02%. With COc1ccc(C(O)CNc2ccccn2)cc1OC (stereo not drawn) the screen gave -2.417%. For CSc1ncccc1C(=O)NCC(=O)NC1CC1 the result was -5.14%. With COC(=O)N(C)CC(=O)NC(CO)Cc1ccccc1 (stereo not drawn) the screen gave -0.7763%. Result for Cc1[nH]ncc1CCCNC(=O)NCCNS(C)(=O)=O was 4.885%. CC(C)NS(=O)(=O)c1cccc(C#N)c1 gave -9.69%. CCCNC(=O)c1ccc2c(c1)NC(=O)C(C)S2 (stereo not drawn) gave -6.587%. For Cc1cccc(OCC(=O)NCC2CCNCC2)c1 the result was -0.8091%.

With CC(C)(C(=O)NCc1nnc[nH]1)c1cccc(Cl)c1 the screen gave -2.643%. Result for COCc1nc(C(=O)N(C)C(C)c2ccncc2)cs1 (stereo not drawn) was 12.4%. CNc1nc(C(=O)N2C[C@H](C3CC3)[C@@H](N)C2)cs1 read 0.1422%. Result for Cc1ccnc(SCC(N)=O)c1C#N was -4.682%. Result for O=C(CCC(F)(F)F)NCCCc1ccccn1 was 19.38%. OCC1CCN(CCc2ccccc2)C1 (stereo not drawn) gave 3.73%. Result for O=C(Nc1cc(Cl)ccn1)C1CC1 was -20.23%. CC(N)CN1CCOC1=O (stereo not drawn) read -6.691%.

COc1cccc(CNC(=O)CNC(=O)C2CCC2)c1 gave -6.08%. Cc1cc(C)nc(NC(=O)Cc2cc(C)on2)n1 gave -4.874%. With CCc1noc(CN(C)CC2CCN(C)CC2)n1 the screen gave 3.935%. Result for COc1ccc(C(N)CCO)cc1 (stereo not drawn) was -13.31%. Result for Cc1ccc(CCC(C)NC(CO)CO)cc1 (stereo not drawn) was 27.11%. O[C@@H]1CN(Cc2ccccc2)C[C@@H]1O gave 8.775%. CN(CCCO)c1cc(C2CC(N)C2)nc(N)n1 (stereo not drawn) read -3.444%. With N#Cc1cnc2ccsc2c1 the screen gave -4.116%.

FC(F)COCCn1nnc(-c2ccsc2)n1 gave -9.059%. Result for COc1ccc(CNC2CCN(C(C)=O)CC2)cc1 was -9.143%. For CNCCCc1ccc(OC)cc1 the result was 17.7%. CNc1ncc(Br)s1 gave 24.78%. CNC(=O)C1CCCN(C(=O)c2cncc(Br)c2)C1 (stereo not drawn) gave 4.368%. C[C@@H]1CN(c2nc(CO)cs2)C[C@]1(C)O gave -11.11%. For Cc1ncccc1OC1CCNC1 (stereo not drawn) the result was -16.58%. NC(=O)c1ccc(NC(=O)CCN2CC(O)C2)cc1 read -17.28%.

With Cc1ccc(OCC(N)=O)cc1C the screen gave -0.4782%. CC(c1ccncc1)N(C)Cc1cnc2cnccn12 (stereo not drawn) read 6.587%. N#Cc1cnc(Oc2ccc3c(c2)CCC3=O)cn1 gave -8.445%. For N#CCCNC1CCOCC1 the result was -1.513%. Result for COc1ccc(C)cc1C(C)O (stereo not drawn) was -4.761%. N#C[C@@H]1CN2CCOC[C@H]2CO1 read -3.313%. With CSCC(=O)N1CCN(C)Cc2ccccc21 the screen gave -3.039%. With N[C@H]1C[C@@H](c2ccccc2)C1 the screen gave -58.4%.

CO[C@H]1CNCC1NC(=O)c1cc(C(C)C)nn1C (stereo partly drawn) gave -8.28%. c1ccc(CNC2CCNCC2)cc1 read -12.61%. N[C@@H]1CC[C@H](C(=O)NCc2csc(N3CCCC3)n2)C1 read 62.86%. For COC(C)(C)C(=O)Cn1cnn(C(C)(C)C)c1=O the result was -18.69%. Result for CSc1nnc(N2CCOCC2)n1CC(C)C was -3.392%. For CCOCn1cnc2sccc2c1=O the result was -9.26%. CCN(CC)CCNC(=O)Nc1ccc2cn[nH]c2c1 read -4.056%. With COC(CN)CC(N)=O (stereo not drawn) the screen gave -14.84%.

COCCOc1ccc(C(=O)N2CCOCC2)cc1Br gave -1.791%. With CCCS(=O)(=O)CC(=O)NC1CCN(CC(N)=O)CC1 the screen gave -11.55%.

5 of the entries, repeated:

* COc1ccc(C)cc1C(C)O (stereo not drawn) : -4.761%
* N#Cc1ccc(-c2nnc(CN3CCC(O)C3)o2)cc1 (stereo not drawn) : -14.09%
* O=C(CCC(F)(F)F)NCCCc1ccccn1 : 19.38%
* CNc1ncc(Br)s1 : 24.78%
* N#Cc1cnc2ccsc2c1 : -4.116%